Chains of the proteins cited; added tags and fusions are not shown. Lines headed by an entry give the natural chain unless they say otherwise; changes in a name come on top.
UniProt Q14683: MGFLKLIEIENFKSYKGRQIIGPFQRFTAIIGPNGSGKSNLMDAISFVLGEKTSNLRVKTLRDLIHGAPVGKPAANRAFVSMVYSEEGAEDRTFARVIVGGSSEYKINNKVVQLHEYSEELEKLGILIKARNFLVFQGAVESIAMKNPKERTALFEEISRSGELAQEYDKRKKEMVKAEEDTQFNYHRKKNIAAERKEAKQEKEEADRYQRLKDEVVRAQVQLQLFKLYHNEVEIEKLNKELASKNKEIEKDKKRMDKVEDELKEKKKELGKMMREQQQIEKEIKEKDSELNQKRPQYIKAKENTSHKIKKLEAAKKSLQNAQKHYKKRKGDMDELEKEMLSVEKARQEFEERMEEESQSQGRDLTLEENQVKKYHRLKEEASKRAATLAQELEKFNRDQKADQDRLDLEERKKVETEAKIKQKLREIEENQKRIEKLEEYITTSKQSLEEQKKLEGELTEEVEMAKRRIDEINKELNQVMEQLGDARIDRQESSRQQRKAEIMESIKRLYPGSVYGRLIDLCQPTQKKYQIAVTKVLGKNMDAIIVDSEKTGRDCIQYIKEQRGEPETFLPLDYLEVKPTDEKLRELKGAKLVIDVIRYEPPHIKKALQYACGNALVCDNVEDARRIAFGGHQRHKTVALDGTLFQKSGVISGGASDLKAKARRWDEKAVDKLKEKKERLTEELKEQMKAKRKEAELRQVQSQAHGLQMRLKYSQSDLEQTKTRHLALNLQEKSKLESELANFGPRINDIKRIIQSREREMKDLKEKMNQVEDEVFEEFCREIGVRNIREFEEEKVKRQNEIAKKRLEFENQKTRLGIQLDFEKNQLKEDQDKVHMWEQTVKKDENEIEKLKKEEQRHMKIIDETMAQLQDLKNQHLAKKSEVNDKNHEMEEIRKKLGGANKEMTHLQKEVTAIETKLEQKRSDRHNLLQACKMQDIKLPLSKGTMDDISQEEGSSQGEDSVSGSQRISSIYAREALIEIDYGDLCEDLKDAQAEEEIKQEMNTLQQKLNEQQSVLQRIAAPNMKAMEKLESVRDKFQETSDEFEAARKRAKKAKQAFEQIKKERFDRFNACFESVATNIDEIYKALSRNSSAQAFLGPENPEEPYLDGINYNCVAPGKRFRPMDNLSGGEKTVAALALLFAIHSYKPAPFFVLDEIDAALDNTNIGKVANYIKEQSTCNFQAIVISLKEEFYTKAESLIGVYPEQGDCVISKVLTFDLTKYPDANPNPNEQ

According to article doi:10.1101/2025.06.19.657327:

Biological target: T1, full length HIS-tagged Satb1 (UniProt Q01826)
T1 sequence: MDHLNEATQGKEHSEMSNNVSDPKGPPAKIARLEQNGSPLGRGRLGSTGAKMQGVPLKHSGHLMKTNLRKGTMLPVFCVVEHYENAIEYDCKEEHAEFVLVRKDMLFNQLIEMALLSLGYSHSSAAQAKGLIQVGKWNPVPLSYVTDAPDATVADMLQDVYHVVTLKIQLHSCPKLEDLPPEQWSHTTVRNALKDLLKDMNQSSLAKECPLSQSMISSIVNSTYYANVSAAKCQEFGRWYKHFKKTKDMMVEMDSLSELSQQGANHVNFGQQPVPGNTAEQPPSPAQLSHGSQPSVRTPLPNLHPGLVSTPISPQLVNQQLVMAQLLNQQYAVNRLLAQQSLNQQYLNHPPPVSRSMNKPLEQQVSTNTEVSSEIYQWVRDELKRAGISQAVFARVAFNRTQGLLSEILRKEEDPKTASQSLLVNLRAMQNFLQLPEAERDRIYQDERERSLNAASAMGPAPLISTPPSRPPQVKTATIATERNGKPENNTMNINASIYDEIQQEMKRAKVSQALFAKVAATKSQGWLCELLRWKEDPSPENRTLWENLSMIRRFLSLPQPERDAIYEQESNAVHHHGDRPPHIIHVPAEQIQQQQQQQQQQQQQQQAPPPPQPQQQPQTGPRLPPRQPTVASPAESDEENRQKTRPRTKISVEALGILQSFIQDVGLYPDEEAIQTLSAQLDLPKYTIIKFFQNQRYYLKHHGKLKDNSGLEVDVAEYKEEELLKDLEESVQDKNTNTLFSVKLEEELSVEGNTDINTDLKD
Assay: pull-down

binding: binds weakly
Substance: Smc1a Hinge domain, GST-tagged (from UniProt Q14683) (domain or fragment)

These are yes or no findings as the source states them, for the method shown. In cells and extracts the contact can be indirect. Binding calls can cover weak binding; strength is not graded here. Where a sequence is shown, tags or fusion partners need not be part of it.
